Data as given in PMC7884723.
No constants are given. Whether binding was seen depends on the method and setting. Binding seen in cells or lysates may run through a third protein. These calls come from enrichment with a bait or labelling near it, and not all partners need be listed.

The chains behind the UniProt entries cited, without tags or fusion partners.
UniProt Q9Y6Q9: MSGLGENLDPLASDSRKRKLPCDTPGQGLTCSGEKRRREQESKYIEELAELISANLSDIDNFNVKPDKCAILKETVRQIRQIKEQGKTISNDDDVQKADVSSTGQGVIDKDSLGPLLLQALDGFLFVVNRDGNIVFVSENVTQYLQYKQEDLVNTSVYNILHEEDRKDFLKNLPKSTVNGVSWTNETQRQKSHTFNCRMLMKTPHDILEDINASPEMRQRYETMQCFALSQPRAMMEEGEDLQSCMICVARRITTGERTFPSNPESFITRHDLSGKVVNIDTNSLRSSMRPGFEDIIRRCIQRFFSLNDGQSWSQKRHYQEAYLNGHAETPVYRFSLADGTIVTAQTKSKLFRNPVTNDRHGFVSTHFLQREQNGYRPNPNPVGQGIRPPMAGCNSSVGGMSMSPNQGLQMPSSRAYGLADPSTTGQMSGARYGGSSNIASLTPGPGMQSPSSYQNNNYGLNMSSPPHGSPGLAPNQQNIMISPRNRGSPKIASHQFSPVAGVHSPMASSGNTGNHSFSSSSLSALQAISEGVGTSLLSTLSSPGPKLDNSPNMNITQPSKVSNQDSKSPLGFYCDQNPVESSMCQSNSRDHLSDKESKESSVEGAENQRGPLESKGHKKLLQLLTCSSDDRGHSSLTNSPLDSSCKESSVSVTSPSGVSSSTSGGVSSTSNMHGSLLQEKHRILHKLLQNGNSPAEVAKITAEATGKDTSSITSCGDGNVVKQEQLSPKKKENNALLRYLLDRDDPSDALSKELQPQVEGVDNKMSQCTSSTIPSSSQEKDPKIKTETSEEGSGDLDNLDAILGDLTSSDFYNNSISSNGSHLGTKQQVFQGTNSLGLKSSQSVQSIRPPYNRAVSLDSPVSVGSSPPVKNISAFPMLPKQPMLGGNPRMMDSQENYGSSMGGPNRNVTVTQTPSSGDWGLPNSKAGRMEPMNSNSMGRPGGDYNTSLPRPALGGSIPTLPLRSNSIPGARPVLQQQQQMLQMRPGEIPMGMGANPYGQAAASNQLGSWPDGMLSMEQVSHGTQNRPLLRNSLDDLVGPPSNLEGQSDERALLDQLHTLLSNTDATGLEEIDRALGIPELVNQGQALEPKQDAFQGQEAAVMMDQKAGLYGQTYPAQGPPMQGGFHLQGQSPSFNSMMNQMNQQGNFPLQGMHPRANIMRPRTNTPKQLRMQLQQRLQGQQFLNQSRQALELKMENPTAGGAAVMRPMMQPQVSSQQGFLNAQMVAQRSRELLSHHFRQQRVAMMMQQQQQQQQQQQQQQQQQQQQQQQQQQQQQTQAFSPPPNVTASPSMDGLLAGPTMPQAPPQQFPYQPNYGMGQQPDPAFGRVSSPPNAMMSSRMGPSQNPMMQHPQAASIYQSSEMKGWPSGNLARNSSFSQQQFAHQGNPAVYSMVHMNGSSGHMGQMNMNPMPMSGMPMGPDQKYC
UniProt Q99873: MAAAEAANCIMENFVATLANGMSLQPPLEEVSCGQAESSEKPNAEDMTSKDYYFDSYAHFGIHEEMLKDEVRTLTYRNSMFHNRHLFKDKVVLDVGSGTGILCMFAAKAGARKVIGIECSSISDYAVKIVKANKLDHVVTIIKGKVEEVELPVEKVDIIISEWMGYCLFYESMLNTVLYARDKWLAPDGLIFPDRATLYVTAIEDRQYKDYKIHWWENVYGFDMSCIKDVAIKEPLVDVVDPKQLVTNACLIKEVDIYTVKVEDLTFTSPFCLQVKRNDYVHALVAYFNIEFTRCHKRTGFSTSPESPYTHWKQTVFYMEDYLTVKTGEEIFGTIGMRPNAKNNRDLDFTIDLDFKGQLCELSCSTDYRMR
UniProt O96028: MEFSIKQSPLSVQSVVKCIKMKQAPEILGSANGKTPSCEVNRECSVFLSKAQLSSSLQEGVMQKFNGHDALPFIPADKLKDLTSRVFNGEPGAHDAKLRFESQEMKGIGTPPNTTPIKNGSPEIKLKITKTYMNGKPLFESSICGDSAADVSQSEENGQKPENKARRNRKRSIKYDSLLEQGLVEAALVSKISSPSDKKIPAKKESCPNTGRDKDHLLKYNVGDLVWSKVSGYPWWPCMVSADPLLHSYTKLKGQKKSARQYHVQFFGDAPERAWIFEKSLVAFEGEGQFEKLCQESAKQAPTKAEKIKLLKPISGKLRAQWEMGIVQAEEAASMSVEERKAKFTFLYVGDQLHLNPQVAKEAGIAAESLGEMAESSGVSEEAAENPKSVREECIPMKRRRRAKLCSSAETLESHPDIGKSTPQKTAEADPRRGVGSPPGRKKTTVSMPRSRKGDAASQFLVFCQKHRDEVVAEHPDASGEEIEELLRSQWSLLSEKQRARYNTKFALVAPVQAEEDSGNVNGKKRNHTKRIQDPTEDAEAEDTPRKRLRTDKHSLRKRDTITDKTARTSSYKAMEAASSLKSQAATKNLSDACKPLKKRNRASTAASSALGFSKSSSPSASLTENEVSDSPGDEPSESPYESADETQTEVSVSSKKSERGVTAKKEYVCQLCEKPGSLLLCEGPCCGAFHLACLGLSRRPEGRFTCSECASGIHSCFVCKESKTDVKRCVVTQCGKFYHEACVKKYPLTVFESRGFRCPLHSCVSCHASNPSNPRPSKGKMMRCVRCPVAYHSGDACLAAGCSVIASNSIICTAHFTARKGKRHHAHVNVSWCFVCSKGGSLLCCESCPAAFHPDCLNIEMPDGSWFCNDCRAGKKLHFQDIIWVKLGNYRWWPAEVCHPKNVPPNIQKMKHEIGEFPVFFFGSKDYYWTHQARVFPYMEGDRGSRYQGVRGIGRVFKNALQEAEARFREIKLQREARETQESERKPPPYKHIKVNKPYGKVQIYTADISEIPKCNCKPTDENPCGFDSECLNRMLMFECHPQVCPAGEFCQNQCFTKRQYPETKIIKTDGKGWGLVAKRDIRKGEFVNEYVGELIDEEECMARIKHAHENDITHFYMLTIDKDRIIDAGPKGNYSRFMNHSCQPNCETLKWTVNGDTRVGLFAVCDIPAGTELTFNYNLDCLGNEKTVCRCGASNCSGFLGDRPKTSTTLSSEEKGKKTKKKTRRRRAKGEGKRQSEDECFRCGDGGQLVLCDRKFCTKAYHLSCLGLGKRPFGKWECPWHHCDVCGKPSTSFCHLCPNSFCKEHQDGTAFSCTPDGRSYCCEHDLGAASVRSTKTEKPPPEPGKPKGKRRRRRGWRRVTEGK
UniProt Q09472: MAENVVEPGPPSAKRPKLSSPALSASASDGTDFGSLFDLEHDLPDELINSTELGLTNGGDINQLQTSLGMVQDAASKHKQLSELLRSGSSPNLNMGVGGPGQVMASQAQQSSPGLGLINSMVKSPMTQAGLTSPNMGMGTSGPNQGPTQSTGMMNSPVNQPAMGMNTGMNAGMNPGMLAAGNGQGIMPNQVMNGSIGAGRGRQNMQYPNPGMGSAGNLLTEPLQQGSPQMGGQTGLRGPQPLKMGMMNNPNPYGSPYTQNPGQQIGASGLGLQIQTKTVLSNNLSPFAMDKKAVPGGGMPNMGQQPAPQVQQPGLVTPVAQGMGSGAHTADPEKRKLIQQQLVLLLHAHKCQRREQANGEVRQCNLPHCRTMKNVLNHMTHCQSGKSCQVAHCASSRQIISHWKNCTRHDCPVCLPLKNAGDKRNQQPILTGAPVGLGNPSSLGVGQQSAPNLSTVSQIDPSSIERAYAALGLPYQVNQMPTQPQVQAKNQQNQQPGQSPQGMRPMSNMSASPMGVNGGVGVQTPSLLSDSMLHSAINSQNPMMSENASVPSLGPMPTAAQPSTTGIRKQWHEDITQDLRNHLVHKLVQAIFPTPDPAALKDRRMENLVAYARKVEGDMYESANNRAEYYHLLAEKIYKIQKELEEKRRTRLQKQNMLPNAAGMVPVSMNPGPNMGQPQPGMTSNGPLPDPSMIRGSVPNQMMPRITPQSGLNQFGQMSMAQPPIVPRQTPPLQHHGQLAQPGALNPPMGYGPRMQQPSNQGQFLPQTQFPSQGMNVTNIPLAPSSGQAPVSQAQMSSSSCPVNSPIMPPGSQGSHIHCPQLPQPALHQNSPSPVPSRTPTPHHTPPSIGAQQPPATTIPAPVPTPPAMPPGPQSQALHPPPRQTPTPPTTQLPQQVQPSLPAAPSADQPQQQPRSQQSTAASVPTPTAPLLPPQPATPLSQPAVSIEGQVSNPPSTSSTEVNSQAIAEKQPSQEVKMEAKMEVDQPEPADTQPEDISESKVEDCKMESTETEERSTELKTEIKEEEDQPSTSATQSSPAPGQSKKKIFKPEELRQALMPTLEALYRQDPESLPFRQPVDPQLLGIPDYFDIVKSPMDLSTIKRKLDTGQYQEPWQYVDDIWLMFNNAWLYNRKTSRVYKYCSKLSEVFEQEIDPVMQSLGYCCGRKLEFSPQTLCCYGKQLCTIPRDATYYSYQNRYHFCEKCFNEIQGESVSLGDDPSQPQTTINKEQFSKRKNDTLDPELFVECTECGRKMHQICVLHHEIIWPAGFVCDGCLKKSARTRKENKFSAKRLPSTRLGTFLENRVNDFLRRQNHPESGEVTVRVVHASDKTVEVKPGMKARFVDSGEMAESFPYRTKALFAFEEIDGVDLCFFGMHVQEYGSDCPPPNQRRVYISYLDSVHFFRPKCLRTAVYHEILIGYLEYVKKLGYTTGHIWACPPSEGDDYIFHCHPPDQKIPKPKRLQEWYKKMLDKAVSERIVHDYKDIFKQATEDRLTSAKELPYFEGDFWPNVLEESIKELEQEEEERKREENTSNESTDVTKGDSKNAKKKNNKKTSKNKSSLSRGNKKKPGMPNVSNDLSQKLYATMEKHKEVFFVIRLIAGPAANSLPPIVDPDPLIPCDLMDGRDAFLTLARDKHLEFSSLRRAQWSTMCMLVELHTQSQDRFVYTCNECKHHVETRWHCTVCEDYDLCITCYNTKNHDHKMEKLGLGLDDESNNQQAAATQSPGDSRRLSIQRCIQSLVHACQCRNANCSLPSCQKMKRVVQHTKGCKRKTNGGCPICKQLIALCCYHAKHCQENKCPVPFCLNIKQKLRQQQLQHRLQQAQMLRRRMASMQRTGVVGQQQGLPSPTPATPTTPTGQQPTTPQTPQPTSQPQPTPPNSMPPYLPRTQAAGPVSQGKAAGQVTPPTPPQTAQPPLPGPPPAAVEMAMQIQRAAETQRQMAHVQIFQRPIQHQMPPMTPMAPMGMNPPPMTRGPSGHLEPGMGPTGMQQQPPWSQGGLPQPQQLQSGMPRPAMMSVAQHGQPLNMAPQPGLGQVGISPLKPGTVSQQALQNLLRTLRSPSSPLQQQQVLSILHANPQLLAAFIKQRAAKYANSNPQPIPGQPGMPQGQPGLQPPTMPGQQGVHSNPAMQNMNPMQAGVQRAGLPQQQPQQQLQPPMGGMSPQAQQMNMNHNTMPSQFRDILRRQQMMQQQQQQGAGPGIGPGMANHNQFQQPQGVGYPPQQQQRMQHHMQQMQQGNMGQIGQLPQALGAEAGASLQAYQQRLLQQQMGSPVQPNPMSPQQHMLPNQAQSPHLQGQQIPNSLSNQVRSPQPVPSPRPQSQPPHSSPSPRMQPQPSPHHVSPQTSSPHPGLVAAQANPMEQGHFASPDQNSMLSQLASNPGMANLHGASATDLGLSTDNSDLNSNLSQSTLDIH

biological target: flag-tagged steroid receptor coactivator-3 (SRC-3-3×flag), expressed in myeloma cells (human) (UniProt Q9Y6Q9); assay: affinity purification with mass spectrometry; flag-tagged SRC-3 overexpressed in myeloma cells (MM.1S in the text, LP-1 in the legend), SRC-3 complex immunoprecipitated, silver-stained bands excised for mass spectrometry

Row | binding | Substance
1 | binds | PRMT1, endogenous in myeloma cells (from UniProt Q99873 1-371)
2 | binds | histone-lysine N-methyltransferase NSD2, endogenous in myeloma cells (from UniProt O96028 1-1365)
3 | binds | p300, endogenous in myeloma cells (from UniProt Q09472 1-2414)
